{"source": "PubChem BioAssay AID504774 (Drosophila RNAi Screening Center, 2011)", "test": "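Fly genes whose loss alters survival after alkylation damage to DNA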 (primary screen)", "cells": "Drosophila Kc167 cells", "reagents": "long dsRNA against Drosophila genes, about 0.25 µg dsRNA per well", "timing": "about 6 days: 3 days knock-down, then 3 days with or without MMS", "conditions": "methyl methanesulphonate 0.004% (w/v) for 3 days after knock-down", "read-out": "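Viability in wells given MMS, read as ATP luminescence, normalised by quantiles plate by plate and averaged across replicates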", "reading the numbers": "mean viability with MMS and viability with MMS: higher = more surviving cells after MMS", "note": "The screen tested about 23,000 reagents; this is an unselected part of those with a known target gene and a result. 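Values are quantile-normalised luminescence on an arbitrary scale; higher means more cells surviving MMS.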 Further read-outs or replicates are left out here."}
{"target gene": "mri", "dsRNA": "DRSC08259", "mean viability with MMS": 3.58e6, "viability with MMS, replicate 1": 4.19e6}
{"target gene": "CG1387", "dsRNA": "DRSC17904", "mean viability with MMS": 3.63e6, "viability with MMS, replicate 1": 4.15e6}
{"target gene": "Vha100-3", "dsRNA": "DRSC05760", "mean viability with MMS": 3.53e6, "viability with MMS, replicate 1": 4.06e6}
{"target gene": "CG14722", "dsRNA": "DRSC14944", "mean viability with MMS": 3.56e6, "viability with MMS, replicate 1": 4.05e6}
{"target gene": "Rpi", "dsRNA": "DRSC04583", "mean viability with MMS": 3.75e6, "viability with MMS, replicate 1": 4.24e6}
{"target gene": "Or22c", "dsRNA": "DRSC00766", "mean viability with MMS": 3.43e6, "viability with MMS, replicate 1": 3.87e6}
{"target gene": "CG11438", "dsRNA": "DRSC11660", "mean viability with MMS": 3.45e6, "viability with MMS, replicate 1": 3.90e6}

Part of the list above, reduced to “viability with MMS, replicate 1”:
Vha100-3 [DRSC05760]: 4.06e6
CG14722 [DRSC14944]: 4.05e6

The list goes on:
{"target gene": "UGP", "dsRNA": "DRSC10411", "mean viability with MMS": 3.69e6, "viability with MMS, replicate 1": 4.19e6}
{"target gene": "Cyp4p3", "dsRNA": "DRSC07374", "mean viability with MMS": 3.66e6, "viability with MMS, replicate 1": 4.11e6}
{"target gene": "CG13681 (retired record)", "dsRNA": "DRSC08906", "mean viability with MMS": 3.50e6, "viability with MMS, replicate 1": 4.00e6}
{"target gene": "CG13681 (retired record)", "dsRNA": "DRSC08907", "mean viability with MMS": 3.65e6, "viability with MMS, replicate 1": 4.14e6}
{"target gene": "CG13681 (retired record)", "dsRNA": "DRSC10038", "mean viability with MMS": 3.45e6, "viability with MMS, replicate 1": 3.90e6}
{"target gene": "CG13681 (retired record)", "dsRNA": "DRSC10039", "mean viability with MMS": 3.53e6, "viability with MMS, replicate 1": 4.05e6}
{"target gene": "CG13681 (retired record)", "dsRNA": "DRSC10927", "mean viability with MMS": 3.43e6, "viability with MMS, replicate 1": 3.90e6}
{"target gene": "CG13681 (retired record)", "dsRNA": "DRSC10929", "mean viability with MMS": 3.52e6, "viability with MMS, replicate 1": 3.97e6}
